Measured values: PubChem BioAssay AID540256 (National Center for Advancing Translational Sciences (NCATS), 2011)
Several values for one entry are separate records, joined by “and”; a condition that tells them apart may be missing. Equal entries are not always repeated. The whole screen tested about 300,000 compounds, of which about 3,700 (1.2%) were called active. The inconclusive results got no clear call from the source; some entries with a clear call stand among them for comparison. Calls come from the whole dose curve; tested in HEK293 cells. Where the call is inconclusive, the potency comes from a doubtful curve fit.

Assay: qHTS for Inhibitors of binding or entry into cells for Lassa Virus; note: nearly all actives have a fitted effect of over 50% in size
Conditions: Lassa virus pseudotype entry inhibition, cell reporter; activity change, negative = inhibition: at 37.9 µM (top of the series) unless noted
% is set by controls: 0 for no effect and ±100 for the full control effect; potency is the fitted concentration of half-maximal effect.

Row | SMILES | Potency | activity change, negative = inhibition
1 | CC(OC(=O)CN1C(=O)C2C3C=CC(C4CC34)C2C1=O)C(=O)c1ccccc1 (stereo not drawn) | inconclusive: 11.2 µM [activator, partial curve, poor fit] | –
2 | CCNC(=O)/C(C#N)=C/c1c(N(Cc2ccccc2)Cc2ccccc2)nc2ccccn2c1=O | inconclusive: 11.2 µM [inhibitor, single point] | –
3 | Cc1ccccc1NC(=S)NCCc1c[nH]c2ccccc12 | inconclusive: 29.1 µM [inhibitor, single point] | –
4 | Cc1ccc(-n2ncc(C(=O)NCc3ccccn3)c2C2CCN(C(=O)OC(C)(C)C)CC2)c(C)c1 | inconclusive: 3.55 µM [inhibitor, full curve, poor fit] | –
5 | Cc1ccc(/C=N/Nc2nnc(Cl)c3ccccc23)cc1 | inconclusive: 31.6 µM [inhibitor, single point] | –
6 | Cc1ccc(Cn2nnc(C(=O)Nc3cccc(C)c3C)c2N)cc1 | – | inactive: -2.32%
7 | O=C1CS/C(=N\NC(=O)c2ccccc2)N1 | – | inactive: -1.55%
8 | O=C(COC(=O)CCN1C(=O)/C(=C\C=C\c2ccccc2)SC1=S)Nc1cc(F)ccc1F | inconclusive: 3.16 µM [inhibitor, partial curve, poor fit] | –
9 | O=c1cc(-c2ccccc2)[nH][nH]1 | – | inactive: 22.8%
10 | Cc1c(C(=O)OCC(=O)N2CCN(c3ccccc3)CC2)oc2ccccc12 | – | inactive: -17% [at 46.1 µM]
11 | O=C(Nc1ccccc1)C1(c2ccccc2)CC1(Cl)Cl (stereo not drawn) | – | inactive: 15.2%
12 | COc1cc(NS(C)(=O)=O)cc(OC)c1OC | inconclusive: 1.12 µM [inhibitor, full curve, poor fit] | –
13 | Cc1ccc(C)c(NC2=C(Cl)C(=O)OC2OC(=O)c2ccco2)c1 (stereo not drawn) | inconclusive: 6.51 µM [inhibitor, single point] | –
14 | Cc1ccc2occ(CC(=O)Nc3ccc(S(=O)(=O)N4CCCC(C)C4)cc3)c2c1 (stereo not drawn) | inconclusive: 12.6 µM [inhibitor, partial curve, poor fit] | –
15 | COc1ccccc1/C=N/N(C(C)=O)c1nc(-c2ccc(F)cc2)cs1 | inconclusive: 29.1 µM [inhibitor, single point] | –
16 | O=C(c1ccco1)N1CCN(S(=O)(=O)c2ccc3c(c2)CCN3C(=O)C2CCC2)CC1 | inconclusive: 3.16 µM [activator, single point] | –
17 | CCOCCCN(C(=O)c1snc(C(N)=O)c1N)C(C(=O)NCCC(C)C)c1ccc(Cl)cc1 (stereo not drawn) | inconclusive: 35.5 µM [inhibitor, single point] | –
18 | CC(=O)Nc1nc(C)c(-c2csc(Nc3ccc(O)cc3)n2)s1 | inconclusive: 0.326 µM [inhibitor, partial curve, poor fit] | –
19 | O=C(Nc1ccc(Cl)c(C(F)(F)F)c1)c1ccc2c(c1)CCN2S(=O)(=O)c1ccccc1 | inconclusive: 10 µM [inhibitor, partial curve, poor fit] | –
20 | COc1cc(N)c(Cl)cc1C(=O)OC(C)C(=O)Nc1cccc(S(=O)(=O)N2CCOCC2)c1 (stereo not drawn) | inconclusive: 3.55 µM [inhibitor, partial curve, poor fit] | –
21 | Cc1[nH]cnc1CSCc1ccc(F)cc1 | inconclusive: 11.2 µM [activator, partial curve, poor fit] | –
22 | CC12CN3CCN(CC(C3)C1O)C2 (stereo not drawn) | – | inactive: 2.38%

Row | SMILES | Potency | activity change, negative = inhibition
23 | CCCC(=O)Nc1cccc(-c2cn3cccnc3n2)c1 | inactive and inconclusive: 7.94 µM [activator, partial curve, poor fit] | –
24 | Cn1nc(C(=O)NCc2ccc(F)cc2)cc1C(=O)NCc1ccc(F)cc1 | inconclusive: 17.8 µM [inhibitor, partial curve, poor fit] | –
25 | CC(C)(C)NS(=O)(=O)c1ccc(NC(=O)NC2CCCCC2)cc1 | inconclusive: 29.1 µM [inhibitor, single point] | –
26 | O=C(COC(=O)C(Cc1ccccc1)NC(=O)c1ccc(Cl)cc1)c1ccc(Cl)cc1 (stereo not drawn) | – | inactive: -4.08%
27 | CCOC(=O)Nc1ccc(S(=O)(=O)Nc2cc(C)nc(C)n2)cc1 | inconclusive: 2.91 µM [inhibitor, partial curve, poor fit] | –
28 | Cc1nnc(SCC(=O)Nc2sc3c(c2C#N)CCCC3)[nH]c1=O | – | inactive: 14.1%
29 | Nc1ccc(CCc2ccccn2)cc1 | inconclusive: 35.5 µM [activator, single point] | –
30 | COc1ccc(C2Nc3cc(OC)ccc3-n3cccc32)cc1 (stereo not drawn) | – | inactive: -8.38% [at 46.1 µM]
31 | CCOc1ccc(NC(=O)C2CCN(S(=O)(=O)c3c(C)noc3/C=C/c3c(C)cc(C)cc3C)CC2)cc1 | – | inactive: 6.3% [at 46.1 µM]
32 | ON=C(CCc1ccccc1)CCc1ccccc1 | inconclusive: 20 µM [inhibitor, single point] | –
33 | Cc1cccc(NC(=O)COc2ccc3oc4c(c3c2)CCCC4)n1 | inconclusive: 7.3 µM [activator, single point] | –
34 | O=C(NCCc1ccc(Cl)cc1)c1ccc2nc[nH]c2c1 | – | inactive: 15.9%
35 | O=C(O)c1ccccc1C(=O)c1cccc2ccccc12 | inconclusive: 22.4 µM [inhibitor, single point] | –
36 | CN(C)c1ccc(C(CNC(=O)c2cccc(C(F)(F)F)c2)N2CCCC2)cc1 (stereo not drawn) | inconclusive: 10 µM [inhibitor, partial curve] | –
37 | O=C(NCC1CCCO1)C(c1cccs1)N(Cc1cccs1)C(=O)Cn1nnc(-c2cccs2)n1 (stereo not drawn) | inconclusive: 1.16 µM [inhibitor, full curve] | –
38 | O=C(CC1(O)C(=O)N(Cc2cccc3ccccc23)c2ccccc21)c1cccnc1 (stereo not drawn) | inconclusive: 20.6 µM [inhibitor, single point] | –
39 | O=C(CCCc1ccccc1)Nc1ccccc1[N+](=O)[O-] | inconclusive: 1.26 µM [inhibitor, single point] | –
40 | Cc1cc(OC(F)F)ccc1NC(=O)Nc1ccc([N+](=O)[O-])cc1 | inconclusive: 22.4 µM [inhibitor, single point] | –
41 | CCCSc1nc(-c2ccc(OC)cc2)cc(-c2ccccc2OC)c1C#N | – | inactive: -13.2% [at 46.1 µM]
42 | Cc1cccc(C)c1NC(=O)CN(Cc1ccc(Br)cc1)S(=O)(=O)c1ccccc1 | – | inactive: -19.5% [at 46.1 µM]
43 | CCCn1c2ccccc2c2cnn(CC(=O)OC)c(=O)c21 | inconclusive: 1.12 µM [inhibitor, partial curve, poor fit] | –

Fetched by structure from the entries so far (two):
Row | SMILES | Potency | activity change, negative = inhibition
32 | ON=C(CCc1ccccc1)CCc1ccccc1 | inconclusive: 20 µM [inhibitor, single point] | –
41 | CCCSc1nc(-c2ccc(OC)cc2)cc(-c2ccccc2OC)c1C#N | – | inactive: -13.2% [at 46.1 µM]
